Experimental data: paper PMC12862363, “AURKB-driven dissolution of CIZ1–RNA assemblies from the inactive X chromosome in mitosis” (Nucleic Acids Research, 2026)
Where a protein sequence is shown, tags need not be part of it.

Tests used:
[1] = molecular target: T1, C181WT (mCIZ1 C-terminal fragment) (Mus musculus) (UniProt Q8VEH2); experiment: EMSA; details: 10 mM Tris-HCl pH 7, 30 mM NaCl, 2.5 mM MgCl2, 0.1% IGEPAL CA-630, 0.1 mg/ml yeast tRNA, 1.5% RNaseOUT, 0.2 mM EDTA, 0.2 mM DTT, 30 C 20 min; 0.8% agarose/TBE at 4 C; recombinant protein; residues 665-845; protein details: N-terminal GST removed with PreScission protease; label: digoxigenin (DIG-11-UTP, internal); probe letters rebuilt from the primers and the genome
T1 sequence (looked up): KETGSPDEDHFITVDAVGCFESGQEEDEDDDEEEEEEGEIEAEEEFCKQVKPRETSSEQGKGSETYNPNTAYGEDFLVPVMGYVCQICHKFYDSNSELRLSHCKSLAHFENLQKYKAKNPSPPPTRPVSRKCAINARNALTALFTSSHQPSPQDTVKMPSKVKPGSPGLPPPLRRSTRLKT

[2] = molecular target: T2, C179WT (hCIZ1 C-terminal fragment) (Homo sapiens) (UniProt Q9ULV3); experiment: EMSA; details: 0.66 nM RNA, yeast tRNA 0.1 mg/ml; 10 mM Tris-HCl pH 7, 30 mM NaCl, 2.5 mM MgCl2, 0.1% IGEPAL CA-630, 0.1 mg/ml yeast tRNA, 1.5% RNaseOUT, 0.2 mM EDTA, 0.2 mM DTT, 30 C 20 min; 0.8% agarose/TBE at 4 C; recombinant protein; residues 720-898; label: digoxigenin (DIG-11-UTP, internal); probe letters rebuilt from the primers and the …
T2 sequence (looked up): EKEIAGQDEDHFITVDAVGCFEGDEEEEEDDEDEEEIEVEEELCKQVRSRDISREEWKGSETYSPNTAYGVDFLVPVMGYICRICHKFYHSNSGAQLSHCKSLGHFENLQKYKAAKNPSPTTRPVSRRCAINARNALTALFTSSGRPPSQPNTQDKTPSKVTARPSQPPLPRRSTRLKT

Does “GGGAGCACUAGCUAUGGCUCUCUGUUUUAUCUAUCUGGUUGCUAUUUCUCUUAGCUUUUCUUUCACUCCUGCCUUUCGUGACUCCCCUUUGGGUCACAUGUUGCAUGCAUCCCUCUCUUUUUCUUGUGCUCACCCCACUUGUUCUUUGUUCAAGUUCUCUUUGUCAGUCCAUUUCAGUUUUCUUUCUGCUGCUUCUAUCCUUAGUGAAUUCUUGUUUACAUUUCUUCCCUGCCUUUCUUGGGCCACUUUCUCUGUUUUCUUUUGUAUUUGUGUCUCUUUGCUAUUGGUGGAUUUCUUAUCUCAGCAUCAUUCUGUUGCUUUGUGUUUGCUUGUGUUUCUAUCUUCUACUUUCCUCCUUUCUGUUCACUUUGAGCAUUUCAUCUCUUUACAAGUCUGUGUCUCUCUUGUAUUCUAAAGUAAUCCUUUCUUGGAUGUUUCUUUGUAUGUACAUGUGCGUGUGUGCAUGUGUGUUAUGUG [Xist repeat E RNA probe]” bind [1]?
Result: binds

What about the binding signal (% probe shifted at 5 µM protein) [2] of the same sequence?
Its binding signal (% probe shifted at 5 µM protein) is 99.
